This is an account of results in patent US8465947B2 (Novacta Biosystems Limited, priority 2006, dated 2013).

The data set is described as follows: general procedure: peptide synthesis; PyBop/diisopropylethylamine. The following applies: late stage modification step.

The substance “Deoxy-Actagardine B N-[3-dimethylaminopropyl]monocarboxamide” displayed a step yield of 85%.
